Results deposited as PubChem BioAssay AID652272 (Drosophila RNAi Screening Center, 2013).
The deposit covers about 21,000 reagents; this is an unselected part of those that have a named target and a result. Over the whole deposit, 503 (2.4%) were called active. 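Raw plate light values, not normalised; calls rest on replicate z-scores that were not deposited; hits include reporter decreases as well as increases.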 Not stated in the record: the amount of reagent, the time to read-out.

Screen: 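Genome-wide knock-down search for components of Hedgehog signalling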 (primary screen)
Cells: Drosophila clone 8 (Cl8) cells
Reagent: long dsRNA against Drosophila genes
Measurement: 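Plate reader light from a firefly reporter under a ptc promoter fragment that responds to Hedgehog, with Renilla light as transfection reference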
Direction: firefly Hh reporter signal: higher = more ptc reporter light; Renilla reference signal: higher = more Renilla control light
Rule for the call: 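Called a hit if the two-replicate mean z-score lies below -2 or above +3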
Meaning of the calls: active = hit: reporter lowered or raised; inactive = not a hit

Alg1 (ALG1, chitobiosyldiphosphodolichol beta-mannosyltransferase) [DRSC15297] | firefly Hh reporter signal, replicate 1 = 1.45e5; firefly Hh reporter signal, replicate 2 = 72868; Renilla reference signal, replicate 1 = 5701; Renilla reference signal, replicate 2 = 3019; call = inactive
RalGPS (Ral GEF with PH domain and SH3 binding motif) [DRSC06941] | firefly Hh reporter signal, replicate 1 = 95329; firefly Hh reporter signal, replicate 2 = 89587; Renilla reference signal, replicate 1 = 4226; Renilla reference signal, replicate 2 = 3637; call = inactive
nec (necrotic) [DRSC06769] | firefly Hh reporter signal, replicate 1 = 99721; firefly Hh reporter signal, replicate 2 = 46596; Renilla reference signal, replicate 1 = 2323; Renilla reference signal, replicate 2 = 3778; call = inactive
CG9447 [DRSC05008] | firefly Hh reporter signal, replicate 1 = 1.07e5; firefly Hh reporter signal, replicate 2 = 58294; Renilla reference signal, replicate 1 = 2356; Renilla reference signal, replicate 2 = 4432; call = inactive
C3G (C3G guanyl-nucleotide exchange factor) [DRSC17745] | firefly Hh reporter signal, replicate 1 = 88896; firefly Hh reporter signal, replicate 2 = 3.27e5; Renilla reference signal, replicate 1 = 3600; Renilla reference signal, replicate 2 = 12058; call = inactive
C3G (C3G guanyl-nucleotide exchange factor) [DRSC17929] | firefly Hh reporter signal, replicate 1 = 98936; firefly Hh reporter signal, replicate 2 = 2.68e5; Renilla reference signal, replicate 1 = 3540; Renilla reference signal, replicate 2 = 9463; call = inactive
Gcat (Glycine C-acetyltransferase) [DRSC09719] | firefly Hh reporter signal, replicate 1 = 16954; firefly Hh reporter signal, replicate 2 = 55505; firefly Hh reporter signal, replicate 3 = 68972; Renilla reference signal, replicate 1 = 5284; Renilla reference signal, replicate 2 = 5872; call = inactive
Taf7 (TBP-associated factor 7) [DRSC15445] | firefly Hh reporter signal, replicate 1 = 68669; firefly Hh reporter signal, replicate 2 = 73965; Renilla reference signal, replicate 1 = 2613; Renilla reference signal, replicate 2 = 8096; call = inactive
GPHR (Golgi pH Regulator) [DRSC07075] | firefly Hh reporter signal, replicate 1 = 99392; firefly Hh reporter signal, replicate 2 = 63626; Renilla reference signal, replicate 1 = 1985; Renilla reference signal, replicate 2 = 3914; call = inactive
dUTPase (Deoxyuridine triphosphatase) [DRSC01998] | firefly Hh reporter signal, replicate 1 = 1.76e5; firefly Hh reporter signal, replicate 2 = 1.41e5; Renilla reference signal, replicate 1 = 7912; Renilla reference signal, replicate 2 = 6360; call = inactive
bgcn (benign gonial cell neoplasm) [DRSC04062] | firefly Hh reporter signal, replicate 1 = 77771; firefly Hh reporter signal, replicate 2 = 53916; Renilla reference signal, replicate 1 = 1733; Renilla reference signal, replicate 2 = 4634; call = inactive
bgcn (benign gonial cell neoplasm) [DRSC04063] | firefly Hh reporter signal, replicate 1 = 74163; firefly Hh reporter signal, replicate 2 = 49901; Renilla reference signal, replicate 1 = 1511; Renilla reference signal, replicate 2 = 4109; call = inactive
CG12540 [DRSC19471] | firefly Hh reporter signal, replicate 1 = 1.04e5; firefly Hh reporter signal, replicate 2 = 1.74e5; Renilla reference signal, replicate 1 = 3079; Renilla reference signal, replicate 2 = 7992; call = inactive
CG12069 [DRSC14470] | firefly Hh reporter signal, replicate 1 = 75532; firefly Hh reporter signal, replicate 2 = 1.08e5; Renilla reference signal, replicate 1 = 2362; Renilla reference signal, replicate 2 = 2793; call = inactive
CG15673 [DRSC04263] | firefly Hh reporter signal, replicate 1 = 78200; firefly Hh reporter signal, replicate 2 = 50040; Renilla reference signal, replicate 1 = 2240; Renilla reference signal, replicate 2 = 4490; call = inactive
CG4080 [DRSC10398] | firefly Hh reporter signal, replicate 1 = 1.24e5; firefly Hh reporter signal, replicate 2 = 72945; Renilla reference signal, replicate 1 = 4848; Renilla reference signal, replicate 2 = 2870; call = inactive
CG13085 [DRSC02189] | firefly Hh reporter signal, replicate 1 = 94586; firefly Hh reporter signal, replicate 2 = 41904; Renilla reference signal, replicate 1 = 2586; Renilla reference signal, replicate 2 = 3990; call = inactive
CG12241 [DRSC14481] | firefly Hh reporter signal, replicate 1 = 97690; firefly Hh reporter signal, replicate 2 = 53511; Renilla reference signal, replicate 1 = 4275; Renilla reference signal, replicate 2 = 2353; call = inactive
CG30427 [DRSC04014] | firefly Hh reporter signal, replicate 1 = 1.27e5; firefly Hh reporter signal, replicate 2 = 1.84e5; Renilla reference signal, replicate 1 = 3058; Renilla reference signal, replicate 2 = 7605; call = inactive
CG30427 [DRSC04311] | firefly Hh reporter signal, replicate 1 = 1.12e5; firefly Hh reporter signal, replicate 2 = 1.06e5; Renilla reference signal, replicate 1 = 4531; Renilla reference signal, replicate 2 = 4214; call = inactive
CG30427 [DRSC04323] | firefly Hh reporter signal, replicate 1 = 96400; firefly Hh reporter signal, replicate 2 = 39418; Renilla reference signal, replicate 1 = 2285; Renilla reference signal, replicate 2 = 2388; call = inactive

Laid out differently: results already given.
| gene | dsRNA | firefly Hh reporter signal, replicate 1 | firefly Hh reporter signal, replicate 2 | firefly Hh reporter signal, replicate 3 | Renilla reference signal, replicate 1 | Renilla reference signal, replicate 2 | call |
| --- | --- | --- | --- | --- | --- | --- | --- |
| bgcn (benign gonial cell neoplasm) | DRSC04062 | 77771 | 53916 | – | 1733 | 4634 | inactive |
| bgcn (benign gonial cell neoplasm) | DRSC04063 | 74163 | 49901 | – | 1511 | 4109 | inactive |
| CG12540 | DRSC19471 | 1.04e5 | 1.74e5 | – | 3079 | 7992 | inactive |
